Data source: PubChem BioAssay AID1259254 (NCATS, 2017)

- Assay: 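Finding genes that stop cells copying their DNA twice in one cycle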 (primary screen)
- Cells: human HCT116 colorectal cancer cells
- Reagent: single siRNA against human genes
- Timing: 3 days
- Detection: 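Imaged Hoechst DNA stain sorts each cell into a cycle phase by DNA amount; per plate, G2 fraction set to 0% for non-targeting and 100% for GMNN siRNA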
- Reading the numbers: G2 robust z-score: higher = more G2 cells, more excess DNA replication
- Call rule: 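An siRNA counts as active if its G2 robust z-score lies at least 5 MADs above the screen median; here such calls match roughly 38% of GMNN control or more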
In all, the deposit lists about 59,000 reagents; shown is an unselected part. About 1,550 of all reagents (2.6%) were called active. 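G2 share is only a proxy for re-replication; each gene was hit by three separate siRNAs, and active genes were retested.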 Not all columns of the deposit are shown. No sequences are given here. Not given: the amount of reagent.

G2 robust z-score, by gene symbol and reagent
KLHL7: SID160744708 0.258 inactive; SID160744709 2.13 inactive; SID160744711 -1.34 inactive
CLUH: SID160735906 3.13 inactive; SID160735907 0.381 inactive; SID160735908 1.79 inactive
SEC63: SID160730241 0.0243 inactive; SID160730242 0.774 inactive; SID160730243 0.353 inactive
HSPH1: SID160729275 -0.43 inactive; SID160729276 -1.16 inactive; SID160729277 0.193 inactive
VAT1: SID160728572 0.55 inactive; SID160728573 -0.748 inactive; SID160728574 0.528 inactive
DNAH6: SID160763452 3.19 inactive; SID160763453 -0.455 inactive; SID160763454 -0.444 inactive
UBE3C: SID160722814 2.34 inactive; SID160722816 -0.00272 inactive; SID160722817 -0.229 inactive
PRDM15: SID160747360 3.75 inactive; SID160747362 1.03 inactive; SID160747363 -0.0755 inactive
FAM174A: SID160733118 1.59 inactive; SID160764873 -0.264 inactive; SID160764874 0.178 inactive
AAK1: SID160732009 0.764 inactive; SID160732017 -0.0521 inactive; SID160732025 -0.556 inactive
